Assay results reported in PubChem BioAssay AID504648 (National Center for Advancing Translational Sciences (NCATS), 2011).
Several values for one entry are separate records, joined by “and”; a condition that tells them apart may be missing. Identical values can stand only once. The whole screen tested about 390,000 compounds, of which about 610 (0.16%) were called active. This list was built around the results that the source calls inconclusive (neither active nor inactive); the mix of calls is not that of the screen. Calls come from the whole dose curve; as a rule, active = well fitted inhibition curve with a large enough effect; inconclusive = small, poorly fitted or top-dose-only effect, or effect the other way, or another doubt; inactive = no such curve, though single readings can be large or run the other way. A potency beside an inconclusive call is a rough fit, not a confirmed value.

Test: Nrf2 qHTS screen for inhibitors: counterscreen for cytotoxicity
Details: A549 ARE-Fluc cells, CellTiter-Fluor viability, 18-24 h; series mostly up to 46 µM
Procedure, shortened: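 Cytotoxicity counterscreen: CellTiter-Fluor fluorescence was measured in A549 ARE_Fluc cells after 18-24 h of compound exposure in a concentration series. The subsequent BugLite luminescent read reports ARE-luciferase activity.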
Potency is the fitted concentration of half-maximal effect.

Compound	Potency
C=CCNC(=O)c1c(N)n(-c2cccc(S(N)(=O)=O)c2)c2nc3ccccc3nc12	inconclusive: 16.4 µM [activator, partial curve, poor fit]
CC(C)(C)NCC(=O)c1c[nH]c2ccccc12	inconclusive: 2.91 µM [activator, partial curve, poor fit]
CCc1ccc(CNCc2c(C(=O)O)n(Cc3ccc(C)cc3)c3cc(C)ccc23)cc1	inconclusive: 16.4 µM [falling, single point]
COc1cc2c(=O)n(CCC(=O)NCC3CCCO3)c(=O)n(CC(=O)Nc3ccc(C)cc3C)c2cc1OC (stereo not drawn)	inactive
COc1ccc2nc(/N=C/c3c(C)[nH]n(-c4ccc(C)cc4)c3=O)sc2c1	inactive
O=C(Cn1ncc2c3ccccc3n(Cc3ccccc3F)c2c1=O)N1CCN(c2ccccn2)CC1	inconclusive: 32.6 µM [falling, partial curve, poor fit]
CCCn1nc(NC(=O)c2cccs2)c2cc3ccc(C)cc3nc21	inconclusive: 16.4 µM [activator, partial curve, poor fit]
Cc1ccc(S(=O)(=O)c2c(C)nn(C(C)(C)C)c2OC(=O)c2ccco2)cc1	inconclusive: 29.1 µM [falling, partial curve, poor fit]
CCn1ccnc1CN(C)Cc1cn(-c2ccc(C)cc2)nc1-c1cccc(C)c1	inconclusive: 20.6 µM [falling, single point]
Cc1cccc(OCCCCCn2ccnc2)c1	inconclusive: 25.9 µM [activator, partial curve, poor fit]
COC(=O)/C=C(\C)NC(=O)c1cccs1	inconclusive: 25.9 µM [activator, partial curve, poor fit]
Cc1ccc2cc3c(NS(=O)(=O)c4cccc5nonc45)nn(CC(C)C)c3nc2c1	inconclusive: 25.9 µM [falling, partial curve, poor fit]
O=C(Nc1ccc(Br)cc1)c1ccc(F)c(S(=O)(=O)N2CCc3ccccc32)c1	inconclusive: 23.1 µM [falling, partial curve, poor fit]
NC(=O)CC(NC(=O)c1ccccc1)c1ccc(NCc2ccc(F)c(F)c2)c([N+](=O)[O-])c1 (stereo not drawn)	inconclusive: 32.6 µM [falling, partial curve, poor fit]
COc1ccc(CCNC(=O)C2CCN(S(=O)(=O)c3c(C)noc3/C=C/c3ccc(C)cc3)CC2)cc1OC	inactive
O=C(Nn1c(C2CCCCC2)nc2ccccc2c1=O)c1ccc([N+](=O)[O-])cc1	inconclusive: 20.6 µM [falling, single point]
COc1ccccc1C1C([N+](=O)[O-])=CC([N+](=O)[O-])=CN1C (stereo not drawn)	inconclusive: 13 µM [falling, partial curve, poor fit]
Cc1cc(C)c(Cn2c(C3CC(=O)N(c4ccc(F)cc4)C3)nc3ccccc32)c(C)c1 (stereo not drawn)	inconclusive: 25.9 µM [falling, partial curve, poor fit]
COc1cc(/C=N/Nc2ccc(C(=O)O)cc2)cc(OC)c1OC	inconclusive: 25.9 µM [activator, partial curve, poor fit]
CCN(CC)c1cc(NCCO)c([N+](=O)[O-])c2nonc12	inconclusive: 23.1 µM [falling, partial curve]
O=C1c2ccccc2CC1Sc1nnc(-c2ccccn2)o1 (stereo not drawn)	inactive

Compound	Potency
COc1cc(CNc2ncnc3c2[nH]c2ccc(C)cc23)cc(OC)c1	inactive
O=C(CSc1nc2ccccc2nc1SCC(=O)N1CCOCC1)N1CCOCC1	inactive
Cc1ccc(Cl)c(NC(=O)COC(=O)c2ccccc2C(=O)c2ccc(Cl)c([N+](=O)[O-])c2)c1Cl	inconclusive: 29.1 µM [falling, single point]
COc1ccc(N=c2cc(-c3ccc(O)cc3)oc3ccccc23)cc1	inconclusive: 32.6 µM [falling, partial curve, poor fit]
CCOC(=O)c1[nH]c2ccc(OC)cc2c1NC(=O)CN1CCc2ccccc2C1	inconclusive: 20.6 µM [falling, partial curve, poor fit]
O=C(Cc1nnc(-c2nc3ccccc3[nH]2)o1)Nc1cc(C(F)(F)F)ccc1Cl	inactive
CCc1ccc(N2CC(C(=O)Nc3ccc(S(=O)(=O)NCC4CCCO4)cc3)CC2=O)cc1 (stereo not drawn)	inactive
CN(CC(=O)Nc1cccc(F)c1)C(=O)c1cccc(S(=O)(=O)N2CCN(c3ccc(F)cc3)CC2)c1	inconclusive: 18.4 µM [falling, partial curve, poor fit]
Cc1ccc(NC(=O)C2CCN(S(=O)(=O)c3ccc4c(c3)NC(=O)C(C)S4)CC2)cc1Cl (stereo not drawn)	inconclusive: 4.11 µM [falling, single point]
COc1cc(C2CC(=O)c3c([nH]c(C(=O)OC4CCCC4)c3C)C2)cc(OC)c1OC (stereo not drawn)	inconclusive: 29.1 µM [falling, partial curve, poor fit]
COC(=O)c1c(NC(=O)c2ccc(C(C)(C)C)cc2)sc2c1CCC(C)C2 (stereo not drawn)	inactive
COc1ccc(-c2cc(C(F)(F)F)n3nc(C(=O)NCc4ccco4)cc3n2)cc1	inactive
CC(=O)c1ccc(N2CCC(c3cc(-c4ccc(Cl)cc4Cl)n[nH]3)CC2)c([N+](=O)[O-])c1	inconclusive: 29.1 µM [falling, single point]
Nc1c(Cl)ncnc1N/N=C/c1ccccn1	inconclusive: 11.6 µM [falling, partial curve]
Cc1ccc2nc(Nc3nc(-c4ccccc4)cc(=O)[nH]3)nc(C)c2c1	inconclusive: 32.6 µM [falling, partial curve, poor fit]
Cc1cc(C)cc(OCC(=O)N2CCC(c3nc4ccccc4o3)CC2)c1	inactive
COc1ccc(N(C(=O)Cc2cccs2)C(C(=O)NC2CCCC2)c2ccncc2)cc1OC (stereo not drawn)	inactive
CCCCNC(=O)C(CC)Sc1nc2sc(C(=O)OC)c(C)c2c(=O)n1N (stereo not drawn)	inactive
CCCC1=Nc2cc(C(=O)NC3CCCCC3)ccc2Sc2ccc(C)cc21	inconclusive: 0.82 µM [falling, partial curve, poor fit]
COc1ccc(CCNC(=O)Cn2c(=O)nc(-c3ccccc3)c3cc(Cl)ccc32)cc1OC	inconclusive: 18.4 µM [falling, partial curve]
O=[N+]([O-])c1cc(/C=N/Nc2nc3ccccc3[nH]2)c(O)cc1O	inconclusive: 16.4 µM [falling, partial curve, poor fit]

Compound	Potency
COc1ccc(OC)c(CN2CCN(c3ccc(S(=O)(=O)N4CCCC4)cn3)CC2)c1	inactive
CC(C)COc1ccc(C(=O)N(CC(=O)Nc2ccccc2C(F)(F)F)Cc2ccco2)cc1	inconclusive: 18.4 µM [falling, partial curve, poor fit]
CCCCN(C(=O)CCC(=O)Nc1cc(C)on1)C(C(=O)NC1CCCC1)c1ccc(F)cc1 (stereo not drawn)	inactive
O=C(CN1C(=O)COc2ccccc21)N1CCCc2ccccc21	inconclusive: 25.9 µM [falling, single point]
CC(=O)N/C(=C\c1ccc(C)cc1)C(=O)O	inconclusive: 25.9 µM [activator, single point]
CCCCC(=O)Nc1ccc(C(=O)Nc2ccc(OC)cc2[N+](=O)[O-])cc1	inconclusive: 29.1 µM [falling, single point]
COC(=O)Cn1ncc2c3ccccc3n(Cc3ccccc3)c2c1=O	inactive
CCCN1CCCc2cc(CN(CCCN3CCOCC3)C(=O)Nc3ccc(Cl)c(Cl)c3)ccc21	inconclusive: 20.6 µM [falling, single point]
Cc1cc(N2CCOCC2)ccc1/C=C1\SC(=O)N(C(C)C)C1=O	inactive
CCCN1C(=O)/C(=C\C=C2/Sc3ccccc3N2CCO)SC1=S	inconclusive: 1.46 µM [falling, partial curve, poor fit]
COc1ccccc1C1=CC(=O)C[C@H](c2ccc3c(c2)OCO3)C1	inconclusive: 20.6 µM [activator, single point]
COc1ccc(-c2cc3ccc(O)c(CN4CCN(C)CC4)c3oc2=O)cc1OC	inconclusive: 20.6 µM [activator, partial curve]
CCOc1ccc(CCNC(=O)CCCn2c(=O)c3cccn3c3cccnc32)cc1	inactive
CCN(c1ccccc1)S(=O)(=O)c1ccc(NC(=O)c2nc(S(C)(=O)=O)ncc2Cl)cc1	inconclusive: 29.1 µM [falling, single point] and inconclusive: 25.9 µM [falling, single point]
CCOC(=O)c1cnc2ccc(OCC)cc2c1NCc1ccccc1OC	active: 11.6 µM
Cc1ccc(NC(=O)C2COc3ccccc3O2)cc1S(=O)(=O)N1CCOCC1 (stereo not drawn)	inactive
O=C(C1CC1)N1CCc2cc(Br)cc(S(=O)(=O)NCCCN3CCCC3)c21	inconclusive: 23.1 µM [activator, partial curve, poor fit]
Cc1ccc2nc3c(cc(C(=O)NC4CCCC4)c(=N)n3C(C)C)c(=O)n2c1	inconclusive: 8.2 µM [activator, partial curve, poor fit]
COc1cc2c(cc1OC)C(C)N(C(=O)c1cc(C)on1)CC2 (stereo not drawn)	inconclusive: 1.84 µM [falling, full curve]
COc1ccc(Cn2c(-c3ccc(OC)c(O)c3)nc3ccccc32)cc1O	inactive
Cc1ccc(-c2nc(NC(=O)CSc3nnc4scc(-c5ccccc5)n34)ns2)cc1	inconclusive: 23.1 µM [falling, partial curve, poor fit]
